Measured data: PubChem BioAssay AID1259308 (NCATS, 2017)
Purpose: 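Candidate targets for better recombinant protein yield in mammalian cells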 (primary screen). Cell system: human HEK293 embryonic kidney cells stably expressing firefly luciferase (HEK-CMV-Luc2-Hygro). Reagents: single siRNA against human genes, 0.8 pmol siRNA per well. Time to read-out: 72 h. Read-out: 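Luciferase light (ONE-Glo) measured on one replicate plate set and viability (CellTiter-Glo) on the other, scaled to a negative control siRNA, with robust z-scores and luciferase per cell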. Direction: total luciferase, z-score and total luciferase, % of control: higher = more reporter protein produced; luciferase per cell, z-score: higher = more reporter output per viable cell; viable cells, % of control: higher = more viable cells. Active means: 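An siRNA counts as active if its total luciferase robust z-score exceeds 3; genes with two or more such siRNAs out of three were retested with fresh siRNAs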. Meaning of the calls: active = raised luciferase; inactive = no rise.
Shown is a random part of about 59,000 reagents. Of all reagents, about 1,510 (2.6%) are marked active. 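Calls use total luciferase alone and ignore viability, so some active siRNAs may act by altering cell number.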 Reagents against one gene are numbered here.

Gene	reagent no.	total luciferase, z-score	total luciferase, % of control	luciferase per cell, z-score	viable cells, % of control	Call
GOLM1	1	-0.957	62.8	-1.29	98.5	inactive
GOLM1	2	-0.362	74.7	-0.474	94.5	inactive
GOLM1	3	0.116	84.2	1.71	60	inactive
IFNA5	1	3.89	159	2.31	97	active
IFNA5	2	0.834	98.5	3.05	49.3	inactive
IFNA5	3	-1.68	48.4	-1.29	75.9	inactive
NRDE2	1	-0.414	73.6	-0.72	99.5	inactive
NRDE2	2	0.48	91.4	0.184	97.3	inactive
NRDE2	3	-1.88	44.5	-1.81	80	inactive
MMP8	1	-0.404	73.8	-0.265	88.5	inactive
MMP8	2	-0.3	75.9	-0.715	102	inactive
MMP8	3	-2.22	37.8	-2.29	77.1	inactive
POLG	1	1.48	111	1.96	74.4	inactive
POLG	2	-0.0684	80.5	-0.0264	90.6	inactive
POLG	3	-0.573	70.5	-1.28	110	inactive
FLJ46284	1	0.503	91.9	-0.214	109	inactive
FLJ46284	2	2.82	138	1.15	114	inactive
FLJ46284	3	0.135	84.6	-0.579	110	inactive
LRRC7	1	-1.07	60.5	-0.86	84.8	inactive
LRRC7	2	-0.366	74.6	-0.763	102	inactive
LRRC7	3	-0.897	64	-0.416	79.8	inactive
ABCA7	1	-0.0645	80.6	0.847	72.1	inactive
ABCA7	2	0.287	87.6	0.658	82.3	inactive
ABCA7	3	2.55	133	1.7	94.6	inactive
LRP11	1	-1.06	60.7	-0.255	72.6	inactive
LRP11	2	0.551	92.8	0.428	92.7	inactive
LRP11	3	-1.63	49.4	-0.913	70.2	inactive
ROR1	1	0.118	84.2	1.56	62.4	inactive
ROR1	2	-0.0231	81.4	-0.901	115	inactive
ROR1	3	-0.0105	81.7	-0.715	110	inactive
WFDC10A	1	0.485	91.5	0.0707	100	inactive
WFDC10A	2	-0.479	72.4	-0.1	83	inactive
WFDC10A	3	0.658	95	1.36	74.2	inactive
E2F1	1	3.21	146	2.77	78.5	active
E2F1	2	0.0709	83.3	0.241	87.4	inactive
E2F1	3	-0.416	73.6	0.123	79.6	inactive
CPSF4L	1	0.97	101	0.322	104	inactive
CPSF4L	2	1.75	117	1.88	79.4	inactive
CPSF4L	3	1.18	105	0.31	108	inactive
